# Laboratory results from US20130090323A1, “HETEROCYCLIC COMPOUNDS AND THEIR USES” (Amgen Inc., priority 2010, published 2013).
# Like-named read-outs stand apart in the source and are kept apart here. For at least one compound, name, drawing or mass did not settle the structure.
# Experiments:
# Class I PI 3-kinases = details: cited from earlier work
# neutrophil [1] = details: cited from earlier work
# neutrophil [2] = details: cited from earlier work; remark: listed apart in the source
# CHO-IR-AKT1-EGFP cells = experiment: AKT Membrane Ruffling Assay; type: cell-based; details: control, 10 uM
# [3] = tested on: MDA MB468 Forkhead-DiversaGFP cells; experiment: Forkhead Translocation Assay; type: cell-based; details: control, 10 uM
# U2OS EGFP-2×FYVE cells = experiment: Class III PI(3)P assay; type: cell-based; details: control, 10 uM
Structure (SMILES),IC50 (Class I PI 3-kinases; read-out: IC50 against each of these PI 3-kinases) [nM],neutrophil migration (neutrophil [1]),superoxide release (neutrophil [2]),AKT localisation (CHO-IR-AKT1-EGFP cells),Forkhead localisation [3],PI(3)P on endosomes (U2OS EGFP-2×FYVE cells),IC50 (Class I PI 3-kinases; read-out: IC50 against each of the various Class I PI 3-kinases) [nM]
O=c1cc(N2CCOCC2)oc2c(-c3ccccc3)cccc12 [LY294002],~1000,block,block,–,–,–,–
COC[C@H]1OC(=O)c2coc3c2[C@@]1(C)C1=C(C3=O)[C@@H]2CCC(=O)[C@@]2(C)C[C@H]1OC(C)=O [wortmannin],–,block,block,AKT is cytoplasmic,Forkhead is nuclear,PI(3)P depleted from endosomes,1 to 10
